Data published in the supplement of paper PMC10849652.
Some of the results follow.

By UniProt entry, the sequences of proteins in these tests, tags left out. Where a name states a change or a piece, a line headed by the entry shows the natural chain unless it says otherwise.
UniProt P55786: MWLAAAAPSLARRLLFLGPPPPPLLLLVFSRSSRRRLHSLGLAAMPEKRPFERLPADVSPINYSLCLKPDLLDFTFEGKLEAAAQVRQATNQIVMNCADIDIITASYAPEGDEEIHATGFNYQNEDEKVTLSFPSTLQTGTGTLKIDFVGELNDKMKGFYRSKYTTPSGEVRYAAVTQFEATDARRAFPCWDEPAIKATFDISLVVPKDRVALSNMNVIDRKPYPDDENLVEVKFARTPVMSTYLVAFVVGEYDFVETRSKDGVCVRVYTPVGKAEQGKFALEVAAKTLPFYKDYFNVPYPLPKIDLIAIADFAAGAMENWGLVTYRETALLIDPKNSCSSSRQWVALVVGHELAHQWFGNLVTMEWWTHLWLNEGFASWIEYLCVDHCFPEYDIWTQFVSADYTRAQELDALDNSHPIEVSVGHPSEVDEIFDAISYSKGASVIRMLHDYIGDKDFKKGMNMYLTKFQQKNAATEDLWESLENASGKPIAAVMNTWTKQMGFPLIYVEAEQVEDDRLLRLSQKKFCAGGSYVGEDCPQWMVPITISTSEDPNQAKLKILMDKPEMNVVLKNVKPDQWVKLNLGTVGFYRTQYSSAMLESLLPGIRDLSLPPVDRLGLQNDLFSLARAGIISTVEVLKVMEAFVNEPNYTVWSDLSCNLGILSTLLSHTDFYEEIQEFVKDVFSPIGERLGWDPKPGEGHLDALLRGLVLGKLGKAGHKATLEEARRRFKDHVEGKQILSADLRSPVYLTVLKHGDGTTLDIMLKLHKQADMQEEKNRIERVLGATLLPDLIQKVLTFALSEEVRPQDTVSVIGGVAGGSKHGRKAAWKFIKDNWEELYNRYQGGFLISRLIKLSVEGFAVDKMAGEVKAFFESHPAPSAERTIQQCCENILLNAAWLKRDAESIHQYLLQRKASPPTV
UniProt Q9UHC9: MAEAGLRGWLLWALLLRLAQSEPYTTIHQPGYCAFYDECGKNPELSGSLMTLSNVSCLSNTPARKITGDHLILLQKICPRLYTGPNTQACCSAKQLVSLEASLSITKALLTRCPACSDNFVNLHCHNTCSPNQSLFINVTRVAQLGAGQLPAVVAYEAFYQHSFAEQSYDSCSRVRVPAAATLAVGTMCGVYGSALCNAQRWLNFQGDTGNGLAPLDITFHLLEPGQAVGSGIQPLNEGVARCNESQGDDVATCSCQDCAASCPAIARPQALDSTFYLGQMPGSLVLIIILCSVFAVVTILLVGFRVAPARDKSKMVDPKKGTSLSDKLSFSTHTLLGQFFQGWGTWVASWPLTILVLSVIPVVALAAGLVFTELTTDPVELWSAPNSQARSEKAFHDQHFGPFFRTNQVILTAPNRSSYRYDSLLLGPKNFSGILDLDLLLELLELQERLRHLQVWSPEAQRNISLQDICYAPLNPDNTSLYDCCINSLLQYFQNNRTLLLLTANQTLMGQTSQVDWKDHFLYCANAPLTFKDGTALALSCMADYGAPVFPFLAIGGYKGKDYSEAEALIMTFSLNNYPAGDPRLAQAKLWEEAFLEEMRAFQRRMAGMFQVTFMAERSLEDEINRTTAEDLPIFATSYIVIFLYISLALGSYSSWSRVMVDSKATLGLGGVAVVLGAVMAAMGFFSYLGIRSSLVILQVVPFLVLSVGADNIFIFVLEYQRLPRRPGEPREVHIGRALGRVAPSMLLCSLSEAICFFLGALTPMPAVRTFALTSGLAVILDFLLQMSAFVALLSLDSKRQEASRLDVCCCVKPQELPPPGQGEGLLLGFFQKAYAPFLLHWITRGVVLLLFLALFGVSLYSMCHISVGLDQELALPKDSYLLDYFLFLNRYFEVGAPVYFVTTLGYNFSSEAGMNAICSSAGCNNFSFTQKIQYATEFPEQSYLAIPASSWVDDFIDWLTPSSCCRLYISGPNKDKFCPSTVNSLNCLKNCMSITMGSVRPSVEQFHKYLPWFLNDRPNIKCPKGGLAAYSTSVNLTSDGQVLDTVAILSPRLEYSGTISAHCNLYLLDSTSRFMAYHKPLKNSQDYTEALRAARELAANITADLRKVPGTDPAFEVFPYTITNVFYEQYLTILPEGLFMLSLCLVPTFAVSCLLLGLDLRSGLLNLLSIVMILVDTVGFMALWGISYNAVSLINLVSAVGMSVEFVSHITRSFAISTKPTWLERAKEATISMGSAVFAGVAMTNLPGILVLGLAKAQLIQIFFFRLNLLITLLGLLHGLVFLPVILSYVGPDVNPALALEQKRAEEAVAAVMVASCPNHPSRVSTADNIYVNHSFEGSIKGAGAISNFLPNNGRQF
UniProt Q8IVI9: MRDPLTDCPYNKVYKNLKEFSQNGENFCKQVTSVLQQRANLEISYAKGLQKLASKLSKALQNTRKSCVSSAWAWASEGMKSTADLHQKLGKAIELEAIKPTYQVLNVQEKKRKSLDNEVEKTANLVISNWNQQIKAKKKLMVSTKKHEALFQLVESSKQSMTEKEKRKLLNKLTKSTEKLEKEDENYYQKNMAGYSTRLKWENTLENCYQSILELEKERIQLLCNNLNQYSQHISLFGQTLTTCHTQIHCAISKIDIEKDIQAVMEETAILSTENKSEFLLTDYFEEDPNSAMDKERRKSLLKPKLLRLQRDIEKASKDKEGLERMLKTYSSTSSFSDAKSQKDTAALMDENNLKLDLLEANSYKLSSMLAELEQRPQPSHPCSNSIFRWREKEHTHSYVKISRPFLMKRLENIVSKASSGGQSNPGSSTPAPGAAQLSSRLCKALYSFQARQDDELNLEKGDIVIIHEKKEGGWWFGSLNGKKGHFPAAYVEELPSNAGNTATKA
UniProt P25208: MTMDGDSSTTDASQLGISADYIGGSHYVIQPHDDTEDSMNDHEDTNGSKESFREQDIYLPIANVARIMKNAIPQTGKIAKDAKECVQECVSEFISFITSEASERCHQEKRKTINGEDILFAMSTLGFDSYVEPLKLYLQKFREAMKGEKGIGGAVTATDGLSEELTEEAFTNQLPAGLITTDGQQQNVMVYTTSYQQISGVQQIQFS
UniProt O60936: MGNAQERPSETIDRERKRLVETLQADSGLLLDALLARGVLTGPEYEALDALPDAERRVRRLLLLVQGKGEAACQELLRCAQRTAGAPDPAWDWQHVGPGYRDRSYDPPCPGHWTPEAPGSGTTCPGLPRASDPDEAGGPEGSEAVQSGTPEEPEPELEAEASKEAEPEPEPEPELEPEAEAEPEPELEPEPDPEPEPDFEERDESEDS
UniProt Q14934: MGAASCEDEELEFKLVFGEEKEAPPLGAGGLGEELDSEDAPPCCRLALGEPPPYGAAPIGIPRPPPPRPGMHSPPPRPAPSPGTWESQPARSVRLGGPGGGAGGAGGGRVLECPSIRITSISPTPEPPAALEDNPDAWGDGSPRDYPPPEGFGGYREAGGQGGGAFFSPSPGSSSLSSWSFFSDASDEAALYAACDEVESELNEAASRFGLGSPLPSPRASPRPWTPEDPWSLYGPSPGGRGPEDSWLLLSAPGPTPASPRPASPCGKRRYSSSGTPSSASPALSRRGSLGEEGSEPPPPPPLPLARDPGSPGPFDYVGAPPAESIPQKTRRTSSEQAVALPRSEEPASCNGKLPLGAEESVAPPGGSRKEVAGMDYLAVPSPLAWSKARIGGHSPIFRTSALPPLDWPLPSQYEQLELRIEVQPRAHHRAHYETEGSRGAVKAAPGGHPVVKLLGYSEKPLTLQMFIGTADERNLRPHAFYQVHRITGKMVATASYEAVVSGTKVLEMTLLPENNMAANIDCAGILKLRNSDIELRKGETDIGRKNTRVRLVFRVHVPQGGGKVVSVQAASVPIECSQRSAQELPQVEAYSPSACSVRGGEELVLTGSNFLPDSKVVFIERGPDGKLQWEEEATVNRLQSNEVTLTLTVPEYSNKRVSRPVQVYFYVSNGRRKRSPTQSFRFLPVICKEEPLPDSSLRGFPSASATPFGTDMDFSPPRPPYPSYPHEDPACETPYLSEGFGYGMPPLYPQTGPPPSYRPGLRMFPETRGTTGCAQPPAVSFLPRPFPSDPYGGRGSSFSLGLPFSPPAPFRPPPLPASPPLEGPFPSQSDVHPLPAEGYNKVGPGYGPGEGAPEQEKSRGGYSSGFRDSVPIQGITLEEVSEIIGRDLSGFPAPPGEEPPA
UniProt O75607: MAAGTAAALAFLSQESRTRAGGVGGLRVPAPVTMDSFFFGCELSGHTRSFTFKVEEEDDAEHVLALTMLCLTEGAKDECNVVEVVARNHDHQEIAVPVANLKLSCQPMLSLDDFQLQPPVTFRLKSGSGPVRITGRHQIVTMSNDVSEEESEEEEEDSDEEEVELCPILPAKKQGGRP
UniProt Q9Y2X3: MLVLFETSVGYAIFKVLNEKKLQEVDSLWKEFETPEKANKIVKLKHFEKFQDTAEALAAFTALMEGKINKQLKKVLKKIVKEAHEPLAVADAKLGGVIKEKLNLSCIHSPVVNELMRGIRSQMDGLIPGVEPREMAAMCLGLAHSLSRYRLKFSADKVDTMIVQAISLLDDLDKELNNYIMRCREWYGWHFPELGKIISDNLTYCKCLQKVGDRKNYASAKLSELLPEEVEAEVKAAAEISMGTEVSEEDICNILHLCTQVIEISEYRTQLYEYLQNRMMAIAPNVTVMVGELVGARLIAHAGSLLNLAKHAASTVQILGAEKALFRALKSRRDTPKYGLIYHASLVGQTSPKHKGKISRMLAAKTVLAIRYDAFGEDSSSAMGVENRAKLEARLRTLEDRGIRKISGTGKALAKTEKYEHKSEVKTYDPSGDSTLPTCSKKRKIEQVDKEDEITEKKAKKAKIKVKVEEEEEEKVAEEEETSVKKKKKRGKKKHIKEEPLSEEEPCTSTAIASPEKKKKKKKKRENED
UniProt Q9Y5B8, whole entry, looked up: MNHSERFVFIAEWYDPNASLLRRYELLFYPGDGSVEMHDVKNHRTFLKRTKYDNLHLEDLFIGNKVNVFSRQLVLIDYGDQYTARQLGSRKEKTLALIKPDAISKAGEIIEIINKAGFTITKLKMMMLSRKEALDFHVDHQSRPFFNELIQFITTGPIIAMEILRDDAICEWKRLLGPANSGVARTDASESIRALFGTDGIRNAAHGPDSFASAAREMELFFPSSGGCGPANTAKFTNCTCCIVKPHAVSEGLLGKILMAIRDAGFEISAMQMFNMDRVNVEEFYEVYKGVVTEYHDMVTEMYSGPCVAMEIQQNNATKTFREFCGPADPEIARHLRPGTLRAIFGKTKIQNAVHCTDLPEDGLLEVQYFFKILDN
UniProt Q9HAN9, whole entry, looked up: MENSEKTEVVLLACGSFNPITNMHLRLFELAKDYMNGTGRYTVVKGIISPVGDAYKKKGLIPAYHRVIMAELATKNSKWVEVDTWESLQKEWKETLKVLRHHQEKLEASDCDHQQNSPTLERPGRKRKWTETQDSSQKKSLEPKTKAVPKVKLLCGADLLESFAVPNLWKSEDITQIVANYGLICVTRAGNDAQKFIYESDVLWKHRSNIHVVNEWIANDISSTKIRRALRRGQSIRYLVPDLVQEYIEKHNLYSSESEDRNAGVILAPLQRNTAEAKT
UniProt Q96IY1: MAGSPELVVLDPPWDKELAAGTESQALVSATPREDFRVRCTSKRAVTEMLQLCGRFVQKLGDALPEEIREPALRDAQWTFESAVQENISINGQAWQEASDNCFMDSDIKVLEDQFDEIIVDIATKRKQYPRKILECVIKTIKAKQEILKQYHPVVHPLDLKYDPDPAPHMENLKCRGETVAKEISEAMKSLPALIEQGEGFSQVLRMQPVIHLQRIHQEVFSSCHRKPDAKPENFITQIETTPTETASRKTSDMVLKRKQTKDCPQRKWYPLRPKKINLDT
UniProt Q5JS37: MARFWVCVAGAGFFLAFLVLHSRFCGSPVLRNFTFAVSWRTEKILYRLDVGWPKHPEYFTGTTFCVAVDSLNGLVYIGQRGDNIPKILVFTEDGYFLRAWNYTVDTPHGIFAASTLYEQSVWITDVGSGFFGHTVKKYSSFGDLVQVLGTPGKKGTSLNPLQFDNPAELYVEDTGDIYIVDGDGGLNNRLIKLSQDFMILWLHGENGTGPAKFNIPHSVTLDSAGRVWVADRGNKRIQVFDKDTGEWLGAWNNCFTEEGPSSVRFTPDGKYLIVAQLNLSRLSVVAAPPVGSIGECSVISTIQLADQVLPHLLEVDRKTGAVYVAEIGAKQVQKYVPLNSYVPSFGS
UniProt Q9UQ49: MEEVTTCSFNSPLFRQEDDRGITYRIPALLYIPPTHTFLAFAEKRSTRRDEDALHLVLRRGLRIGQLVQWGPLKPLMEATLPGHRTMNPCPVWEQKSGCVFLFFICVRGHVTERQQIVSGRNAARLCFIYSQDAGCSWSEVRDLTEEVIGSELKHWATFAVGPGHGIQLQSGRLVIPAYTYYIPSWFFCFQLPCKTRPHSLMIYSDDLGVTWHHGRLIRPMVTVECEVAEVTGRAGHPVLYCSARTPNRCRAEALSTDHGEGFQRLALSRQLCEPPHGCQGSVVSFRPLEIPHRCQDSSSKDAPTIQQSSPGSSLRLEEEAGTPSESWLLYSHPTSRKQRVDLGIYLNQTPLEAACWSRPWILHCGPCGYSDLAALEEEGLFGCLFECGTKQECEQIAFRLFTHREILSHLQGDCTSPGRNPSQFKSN

Legend:
Experiment in all cases: log2 fold change, soluble protein after heating vs DMSO (PISA); higher = thermal stabilisation; K562 cells, 10 uM, 30 min; active = over 0.2 and 3.5 SD of the protein, either way, in both replicates (recomputed)
[1] = compound: CC1=C(C=C(C=C1)NC(=O)C2=CC(=CC=C2)C(C)(C)C#N)NC3=CC4=C(C=C3)N=CN(C4=O)C
How it was run: (§1)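 K562 cells (2×10^6 cells/mL) were treated with 10 μM compound for 30 min, and aliquots were heated for 3 min over 48°C-58°C. Pooled aliquots were extracted in PBS with 0.5% NP-40 at 4°C, and the supernatant after 21,000xg for 90 min was measured by TMTpro 16plex LC-MS/MS with channel sums equalised. Reported thermal stability, relative to control samples and from duplicates, is a log2 fold change.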

[2] = compound: CC1=C(C=C(C=C1)NC(=O)C2=CC(=CC=C2)N(C)C)NC(=O)C3=CC=C(C=C3)O
How it was run: as §1

[3] = compound: CC1=CC=C(C=C1)SC2=C3C=C(SC3=CN=C2)C(=O)N
How it was run: as §1

[4] = compound: CC1=NC(=CC=C1)C2=C(N=C(N2)C(C)(C)C)C3=CC4=NC=CN=C4C=C3
How it was run: as §1

Nexturastat A = compound: CCCCN(Cc1ccc(C(=O)NO)cc1)C(=O)Nc1ccccc1 [Nexturastat A]
How it was run: as §1

vemurafenib = compound: CCCS(=O)(=O)Nc1ccc(F)c(C(=O)c2c[nH]c3ncc(-c4ccc(Cl)cc4)cc23)c1F [vemurafenib]
How it was run: as §1

[5] = compound: CCCS(=O)(=O)Nc1ccc(F)c(C(=O)c2c[nH]c3ncc(Cl)cc23)c1F
How it was run: as §1

[6] = compound: CCCc1cc(C)[nH]c(=O)c1CNC(=O)c1cc(-c2ccnc(N3CCN(C)CC3)c2)cc2c1cnn2C(C)C
How it was run: as §1

givinostat = compound: CCN(CC)Cc1ccc2cc(COC(=O)Nc3ccc(C(=O)NO)cc3)ccc2c1 [givinostat]
How it was run: as §1

barasertib = compound: CCN(CCCOc1ccc2c(Nc3cc(CC(=O)Nc4cccc(F)c4)[nH]n3)ncnc2c1)CCOP(=O)(O)O [barasertib]
How it was run: as §1

[7] = compound: CC[C@@H]1C(=O)N(C)c2cnc(Nc3ccc(C(=O)NC4CCN(C)CC4)cc3OC)nc2N1C1CCCC1
How it was run: as §1

volasertib = compound: CC[C@@H]1C(=O)N(C)c2cnc(Nc3ccc(C(=O)N[C@H]4CC[C@H](N5CCN(CC6CC6)CC5)CC4)cc3OC)nc2N1C(C)C [volasertib]
How it was run: as §1

[8] = compound: CC[C@H](C)N1C=C(C2=C(C=C(C=C21)C3=CN=C(C=C3)N4CCNCC4)C(=O)NCC5=C(C=C(NC5=O)C)C)C
How it was run: as §1

epoxomicin = compound: CC[C@H](C)[C@@H](C(=O)N[C@@H]([C@@H](C)O)C(=O)N[C@@H](CC(C)C)C(=O)[C@]1(CO1)C)NC(=O)[C@H]([C@@H](C)CC)N(C)C(=O)C [epoxomicin]
How it was run: as §1

[9] = compound: CCn1cc(-c2ccnc3[nH]c(-c4cccc(CN(C)C)c4)cc23)c(-c2ccc(NC(=O)N(C)C)cc2)n1
How it was run: as §1

[10] = compound: CN(C)CC(=O)Nc1ccc2[nH]c(=O)c3ccccc3c2c1
How it was run: as §1

[11] = compound: CN1C2=C(C3=C1C(=O)N(N=C3)CC4=CC(=CC=C4)N)SC(=C2)S(=O)C
How it was run: as §1

[12] = compound: CN1CCC(CNc2ccc3ncc(-c4cccc(OC(F)(F)F)c4)n3n2)CC1
How it was run: as §1

[13] = compound: CCn1c(C(=O)N(C2CC2)C2CC2)cc2c3c(ncn3C)c(Nc3cc(C)n(C)n3)nc21
How it was run: as §1

rosiglitazone = compound: CN(CCOC1=CC=C(C=C1)C[C@H]2C(=O)NC(=O)S2)C3=CC=CC=N3 (racemic) [rosiglitazone]
How it was run: as §1

| Target | log2 fold change [1] | log2 fold change [2] | log2 fold change [3] | log2 fold change [4] | log2 fold change (Nexturastat A) | log2 fold change (vemurafenib) | log2 fold change [5] | log2 fold change [6] | log2 fold change (givinostat) | log2 fold change (barasertib) | log2 fold change [7] | log2 fold change (volasertib) | log2 fold change [8] | log2 fold change (epoxomicin) | log2 fold change [9] | log2 fold change [10] | log2 fold change [11] | log2 fold change [12] | log2 fold change [13] | log2 fold change (rosiglitazone) |
| --- | --- | --- | --- | --- | --- | --- | --- | --- | --- | --- | --- | --- | --- | --- | --- | --- | --- | --- | --- | --- |
| NPEPPS (UniProt P55786) | inactive: 0.079 | inactive: -0.012 | inactive: -0.004 | inactive: 0.018 | inactive: -0.017 | inactive: -0.022 | inactive: 0.003 | inactive: 0.009 | inactive: -0.02 | inactive: 0.008 | inactive: -0.005 | inactive: -0.023 | inactive: 0.079 | inactive: -0.022 | inactive: -0.102 | inactive: 0.007 | inactive: -0.098 | inactive: -0.141 | – | – |
| NIPA1 (UniProt Q7RTP0) | inactive: 0.048 | inactive: -0.055 | inactive: -0.014 | inactive: 0 | – | inactive: 0.019 | inactive: -0.072 | inactive: 0.083 | inactive: 0.088 | inactive: 0.048 | inactive: 0.173 | inactive: 0.045 | inactive: 0.005 | – | – | inactive: 0.043 | inactive: -0.068 | – | inactive: 0.008 | inactive: 0.089 |
| NPC1L1 (UniProt Q9UHC9) | inactive: -0.014 | – | inactive: 0.152 | inactive: 0.02 | – | inactive: -0.213 | inactive: -0.109 | inactive: 0.012 | – | inactive: -0.037 | inactive: -0.029 | inactive: -0.016 | inactive: 0.2 | – | – | inactive: -0.016 | inactive: -0.081 | – | – | – |
| NOSTRIN isoform 4 (UniProt Q8IVI9) | inactive: 0.093 | inactive: -0.053 | – | – | – | – | – | inactive: 0.157 | inactive: 0.302 | – | inactive: 0.094 | – | inactive: 0.276 | – | – | – | – | – | inactive: -0.011 | – |
| NFYB (UniProt P25208) | inactive: -0.012 | inactive: -0.118 | inactive: -0.023 | inactive: 0.025 | – | inactive: 0.026 | inactive: 0.025 | inactive: 0.044 | inactive: -0.012 | inactive: 0.049 | inactive: 0.008 | inactive: 0.019 | inactive: -0.029 | – | inactive: -0.055 | inactive: -0.011 | inactive: 0.031 | inactive: 0.085 | – | – |
| NOL3 isoform 3 (UniProt O60936) | inactive: 0.134 | inactive: -0.081 | inactive: -0.019 | inactive: -0.155 | inactive: 0.227 | inactive: 0.001 | inactive: -0.064 | inactive: -0.013 | – | – | inactive: 0.054 | inactive: 0.014 | inactive: 0.055 | inactive: -0.037 | – | inactive: 0.201 | inactive: -0.038 | – | – | – |
| NFATC4 isoform 2 (UniProt Q14934) | inactive: 0.053 | inactive: -0.127 | inactive: -0.607 | inactive: -0.064 | inactive: -0.176 | inactive: -0.007 | inactive: -0.238 | inactive: 0.238 | – | inactive: 0.084 | inactive: 0.125 | inactive: 0.272 | – | inactive: 0.017 | inactive: 0.042 | inactive: -0.03 | inactive: -0.004 | inactive: -0.095 | – | inactive: 0.124 |
| NPM3 (UniProt O75607) | inactive: 0.003 | inactive: -0.004 | inactive: -0.005 | inactive: -0.056 | – | inactive: -0.04 | inactive: 0.041 | inactive: -0.015 | inactive: 0.019 | inactive: -0.083 | inactive: 0.065 | inactive: 0.124 | inactive: -0.099 | – | inactive: 0.014 | inactive: -0.011 | inactive: 0.143 | inactive: 0.145 | – | – |
| NSDHL (UniProt Q15738) | inactive: 0.073 | inactive: -0.005 | inactive: 0.029 | inactive: -0.001 | inactive: -0.111 | inactive: 0.07 | inactive: -0.027 | inactive: -0.031 | inactive: -0.013 | inactive: -0.004 | inactive: -0.005 | inactive: 0.084 | inactive: 0.105 | inactive: -0.004 | inactive: -0.018 | inactive: 0.012 | inactive: -0.193 | inactive: -0.001 | – | – |
| NOP58 (UniProt Q9Y2X3) | inactive: -0.055 | inactive: -0.012 | inactive: -0.058 | inactive: -0.073 | inactive: 0.161 | inactive: 0.046 | inactive: 0.041 | inactive: 0.081 | inactive: 0.072 | inactive: -0.075 | inactive: 0.095 | inactive: -0.066 | inactive: 0.057 | inactive: -0.263 | inactive: 0.192 | inactive: 0.052 | inactive: 0.234 | inactive: 0.2 | – | – |
| NME7 (UniProt Q9Y5B8) | inactive: -0.008 | inactive: -0.089 | inactive: -0.021 | inactive: 0.059 | inactive: 0.024 | inactive: -0.037 | inactive: 0.081 | inactive: -0.06 | inactive: -0.202 | inactive: 0.042 | inactive: -0.014 | active: -0.358 | – | inactive: -0.072 | inactive: -0.044 | inactive: -0.045 | inactive: 0.014 | inactive: -0.314 | – | – |
| NMNAT1 (UniProt Q9HAN9) | inactive: -0.079 | inactive: 0.006 | inactive: -0.09 | inactive: -0.196 | inactive: 0.132 | inactive: -0.162 | inactive: -0.139 | inactive: 0.178 | inactive: 0.042 | inactive: -0.064 | inactive: 0.302 | inactive: 0.161 | inactive: -0.007 | inactive: -0.168 | inactive: 0.098 | inactive: -0.092 | inactive: 0.228 | inactive: 0.053 | – | – |
| NSL1 (UniProt Q96IY1) | inactive: 0.021 | inactive: 0.001 | inactive: 0.087 | inactive: 0.253 | – | inactive: -0.034 | inactive: 0.095 | inactive: 0.044 | inactive: 0.14 | inactive: 0.03 | inactive: -0.014 | inactive: -0.34 | inactive: 0.181 | – | inactive: -0.15 | inactive: 0.042 | inactive: -0.105 | inactive: -0.421 | inactive: 0.06 | inactive: -0.056 |
| NHLRC3 (UniProt Q5JS37) | inactive: -0.036 | inactive: 0.036 | inactive: -0.096 | inactive: 0.21 | inactive: -0.059 | – | inactive: -0.183 | inactive: -0.064 | inactive: -0.068 | inactive: -0.118 | inactive: 0.004 | inactive: 0.043 | inactive: -0.125 | inactive: 0.014 | inactive: 0.076 | – | inactive: -0.098 | inactive: 0.25 | inactive: 0.044 | inactive: -0.042 |
| NFKBIE (UniProt O00221) | inactive: 0.095 | inactive: 0.069 | inactive: 0.044 | inactive: -0.021 | inactive: 0 | inactive: 0.052 | inactive: -0.137 | inactive: 0.104 | inactive: -0.009 | – | inactive: -0.098 | inactive: -0.115 | inactive: 0.058 | inactive: 0.121 | inactive: 0.026 | inactive: 0.003 | inactive: -0.039 | inactive: 0.084 | inactive: -0.061 | – |
| NEU3 isoform 2 (UniProt Q9UQ49) | inactive: 0.022 | – | inactive: -0.112 | – | – | – | inactive: 0.133 | – | inactive: 0.189 | – | – | inactive: -0.158 | – | – | – | – | – | – | – | – |

2 entries drawn at random from those above, as already listed:

| Target | log2 fold change [1] | log2 fold change [2] | log2 fold change [3] | log2 fold change [4] | log2 fold change (Nexturastat A) | log2 fold change (vemurafenib) | log2 fold change [5] | log2 fold change [6] | log2 fold change (givinostat) | log2 fold change (barasertib) | log2 fold change [7] | log2 fold change (volasertib) | log2 fold change [8] | log2 fold change (epoxomicin) | log2 fold change [9] | log2 fold change [10] | log2 fold change [11] | log2 fold change [12] | log2 fold change [13] | log2 fold change (rosiglitazone) |
| --- | --- | --- | --- | --- | --- | --- | --- | --- | --- | --- | --- | --- | --- | --- | --- | --- | --- | --- | --- | --- |
| NFATC4 isoform 2 (UniProt Q14934) | inactive: 0.053 | inactive: -0.127 | inactive: -0.607 | inactive: -0.064 | inactive: -0.176 | inactive: -0.007 | inactive: -0.238 | inactive: 0.238 | – | inactive: 0.084 | inactive: 0.125 | inactive: 0.272 | – | inactive: 0.017 | inactive: 0.042 | inactive: -0.03 | inactive: -0.004 | inactive: -0.095 | – | inactive: 0.124 |
| NOL3 isoform 3 (UniProt O60936) | inactive: 0.134 | inactive: -0.081 | inactive: -0.019 | inactive: -0.155 | inactive: 0.227 | inactive: 0.001 | inactive: -0.064 | inactive: -0.013 | – | – | inactive: 0.054 | inactive: 0.014 | inactive: 0.055 | inactive: -0.037 | – | inactive: 0.201 | inactive: -0.038 | – | – | – |
